The values below come from article PMC8774046.

Protein sequences, listed by entry. Tags and fused reporters are not part of them. Lines headed by an entry give the natural chain unless they say otherwise; changes in a name come on top.
UniProt Q9FMI8: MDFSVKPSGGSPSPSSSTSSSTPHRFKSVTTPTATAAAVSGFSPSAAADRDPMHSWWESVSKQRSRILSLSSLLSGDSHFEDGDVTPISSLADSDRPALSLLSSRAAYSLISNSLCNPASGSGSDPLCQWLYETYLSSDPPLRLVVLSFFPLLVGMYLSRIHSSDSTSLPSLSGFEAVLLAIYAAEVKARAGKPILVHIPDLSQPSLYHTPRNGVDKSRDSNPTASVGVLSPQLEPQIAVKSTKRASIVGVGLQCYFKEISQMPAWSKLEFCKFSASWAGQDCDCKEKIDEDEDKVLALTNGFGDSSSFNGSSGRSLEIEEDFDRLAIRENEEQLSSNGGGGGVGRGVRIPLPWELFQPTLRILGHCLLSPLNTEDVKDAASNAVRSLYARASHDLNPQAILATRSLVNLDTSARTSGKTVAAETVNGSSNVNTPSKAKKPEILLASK

The target in test [1] is T1, NPG1 (pairwise yeast two-hybrid fusion) (Arabidopsis thaliana) (UniProt Q8GZN1).
T1 sequence: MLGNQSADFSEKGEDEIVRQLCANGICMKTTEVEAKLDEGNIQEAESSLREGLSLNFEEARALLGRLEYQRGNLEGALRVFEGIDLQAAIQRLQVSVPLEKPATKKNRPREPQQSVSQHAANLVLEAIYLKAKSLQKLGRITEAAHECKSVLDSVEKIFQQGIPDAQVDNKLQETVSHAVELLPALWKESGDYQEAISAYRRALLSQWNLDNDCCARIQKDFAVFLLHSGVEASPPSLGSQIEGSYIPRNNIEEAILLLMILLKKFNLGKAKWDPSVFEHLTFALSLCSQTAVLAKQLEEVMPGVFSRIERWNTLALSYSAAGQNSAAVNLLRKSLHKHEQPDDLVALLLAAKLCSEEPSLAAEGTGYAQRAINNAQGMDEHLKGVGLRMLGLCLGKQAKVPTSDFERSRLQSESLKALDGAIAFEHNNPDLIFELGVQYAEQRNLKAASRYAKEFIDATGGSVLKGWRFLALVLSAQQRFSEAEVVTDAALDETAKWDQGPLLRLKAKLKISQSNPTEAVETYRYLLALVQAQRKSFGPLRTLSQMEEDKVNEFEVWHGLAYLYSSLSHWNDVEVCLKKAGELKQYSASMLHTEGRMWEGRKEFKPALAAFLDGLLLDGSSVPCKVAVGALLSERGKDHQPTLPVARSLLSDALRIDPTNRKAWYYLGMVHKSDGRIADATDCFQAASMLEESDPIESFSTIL
As to the kind of experiment: two-hybrid; pairwise; AD vectors (prey) in Y8800 and DB vectors (bait) in Y8930, mated; growth on SD-LTH, with 1 mM 3AT for strong interactions; CHX control for auto-activation.

In test [2] the target is T2, NPGR1 (pairwise yeast two-hybrid fusion) (Arabidopsis thaliana) (UniProt Q9CB03).
T2 sequence: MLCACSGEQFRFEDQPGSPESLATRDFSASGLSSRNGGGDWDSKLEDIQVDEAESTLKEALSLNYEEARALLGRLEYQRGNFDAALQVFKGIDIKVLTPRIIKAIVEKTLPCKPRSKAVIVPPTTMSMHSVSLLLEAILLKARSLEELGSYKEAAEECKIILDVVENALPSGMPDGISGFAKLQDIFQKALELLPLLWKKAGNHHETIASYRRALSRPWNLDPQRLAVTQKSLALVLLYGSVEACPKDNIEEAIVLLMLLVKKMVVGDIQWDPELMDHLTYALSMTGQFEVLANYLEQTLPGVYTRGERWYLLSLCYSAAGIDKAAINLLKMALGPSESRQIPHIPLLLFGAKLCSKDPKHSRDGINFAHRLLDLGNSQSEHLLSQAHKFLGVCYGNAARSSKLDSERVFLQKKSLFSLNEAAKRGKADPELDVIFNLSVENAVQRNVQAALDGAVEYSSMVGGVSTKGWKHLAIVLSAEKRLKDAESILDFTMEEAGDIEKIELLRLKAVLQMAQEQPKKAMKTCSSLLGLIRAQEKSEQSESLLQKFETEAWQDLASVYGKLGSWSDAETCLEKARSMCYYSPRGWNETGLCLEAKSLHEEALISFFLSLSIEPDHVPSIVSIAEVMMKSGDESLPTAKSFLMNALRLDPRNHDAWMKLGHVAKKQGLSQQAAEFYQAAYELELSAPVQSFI
The test is described as above.

Test [3] deals with T3, NPGR2 (pairwise yeast two-hybrid fusion) (Arabidopsis thaliana) (UniProt Q66GN3).
T3 sequence: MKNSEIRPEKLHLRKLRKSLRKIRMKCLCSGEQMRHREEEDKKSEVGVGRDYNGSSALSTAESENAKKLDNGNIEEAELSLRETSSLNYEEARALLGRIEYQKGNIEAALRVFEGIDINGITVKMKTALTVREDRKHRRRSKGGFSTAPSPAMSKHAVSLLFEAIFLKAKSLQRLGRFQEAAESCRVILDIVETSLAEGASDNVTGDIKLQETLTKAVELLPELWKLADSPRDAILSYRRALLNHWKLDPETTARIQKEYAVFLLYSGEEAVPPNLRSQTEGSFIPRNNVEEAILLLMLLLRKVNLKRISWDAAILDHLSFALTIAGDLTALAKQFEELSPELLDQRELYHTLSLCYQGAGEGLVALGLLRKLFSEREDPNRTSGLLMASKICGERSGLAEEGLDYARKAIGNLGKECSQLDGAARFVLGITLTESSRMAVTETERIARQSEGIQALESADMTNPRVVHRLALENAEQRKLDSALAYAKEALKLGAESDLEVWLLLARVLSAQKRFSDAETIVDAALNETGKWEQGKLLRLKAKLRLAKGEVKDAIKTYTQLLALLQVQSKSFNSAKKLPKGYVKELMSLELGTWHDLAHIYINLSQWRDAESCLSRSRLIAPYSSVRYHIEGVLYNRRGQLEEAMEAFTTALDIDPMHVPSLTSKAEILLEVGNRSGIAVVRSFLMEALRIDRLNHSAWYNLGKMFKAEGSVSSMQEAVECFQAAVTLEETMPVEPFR
Described as above.

Test [4] has as its target HYC2–mCITRINE (Arabidopsis thaliana). As to the kind of experiment: co-IP; leaf tissue of Arabidopsis transgenic lines; proteins fused to mCITRINE immunoprecipitated with Miltenyi µMacs anti-GFP; immunoblot with anti-PI4Kα1, anti-NPGR2 and anti-GFP. On the technique in general: In western blotting, separated proteins are transferred to a membrane and probed.

Results are given in words; binding and its absence hold for the method and conditions named. Binding calls can cover weak binding; strength is not graded here. For some assays here: Tags and fused reporters may be left off the sequences shown. For some assays here: Binding seen in cells or lysates may run through a third protein.

For the molecule “HYC1 (pairwise yeast two-hybrid fusion) (from UniProt Q3E983)”, the binding result in test [1] was “binds”.
For “HYC2 (pairwise yeast two-hybrid fusion) (from UniProt Q9FMI8)”, the binding result in test [1], in test [2] and in test [3] was “binds” in each case.

B1: NPGR2 (endogenous) (protein, UniProt Q66GN3 1-739)
chain: T3 sequence
For B1, in test [4], the binding result is recorded as “binds”.
